Values from PubChem BioAssay AID743121 (NCATS, 2013)

Aim: 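Partners whose loss is lethal together with topoisomerase I blockade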 (primary screen)
System: MDA-MB-231 cells, a human breast cancer line
Knock-down reagent: single siRNA against human genes, 20 nM siRNA (0.8 pmol per well)
Duration: 120 h (drug added 48 h after transfection, read 72 h later)
Conditions: camptothecin 20 nM (about EC30) for 72 h; vehicle 0.1% DMSO in parallel plates
Detection: 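CellTiter-Glo ATP signal, scaled to control siRNA as percent viability; sensitisation given as log2 of untreated divided by camptothecin-treated viability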
Reading the numbers: log2 vehicle/camptothecin viability: higher = stronger sensitisation to camptothecin
Rule for the call: 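Each gene scored by redundant siRNA activity (RSA) over its individual siRNA ratios; a gene is called active at p < 0.001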
The deposit covers about 26,000 reagents; below is a random part of them. Of all reagents, 167 (0.63%) were called active. 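Calls are per gene from RSA p-values that are not deposited; an individual active-marked siRNA can sensitise only weakly.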 The numbers tell different reagents against one gene apart. Not all columns of the deposit are shown.

MRE11 (MRE11 double strand break repair nuclease) #1 showed log2 vehicle/camptothecin viability -0.232; inactive. For MRE11 (MRE11 double strand break repair nuclease) #2, the values are log2 vehicle/camptothecin viability 0.378; inactive. After knock-down of MRE11 (MRE11 double strand break repair nuclease) #3, the screen gave log2 vehicle/camptothecin viability 0.433; inactive. Knock-down of MRE11 (MRE11 double strand break repair nuclease) #4 gave: log2 vehicle/camptothecin viability -0.195; inactive. With knock-down of GTF2F1 (general transcription factor IIF subunit 1) #1, the record shows log2 vehicle/camptothecin viability 0.17; inactive. After knock-down of GTF2F1 (general transcription factor IIF subunit 1) #2 the results were log2 vehicle/camptothecin viability 0.00624; inactive.

For GTF2F1 (general transcription factor IIF subunit 1) #3, the entry reads log2 vehicle/camptothecin viability -0.126; inactive. After knock-down of FMO5 (flavin containing dimethylaniline monoxygenase 5) #1, the screen gave log2 vehicle/camptothecin viability -0.014; inactive. FMO5 (flavin containing dimethylaniline monoxygenase 5) #2 showed log2 vehicle/camptothecin viability 0.826; inactive. With knock-down of FMO5 (flavin containing dimethylaniline monoxygenase 5) #3, the screen gave log2 vehicle/camptothecin viability -0.0405; inactive. Silencing of FMO5 (flavin containing dimethylaniline monoxygenase 5) #4 resulted in: log2 vehicle/camptothecin viability -0.231; inactive. SQOR (sulfide quinone oxidoreductase) #1 showed log2 vehicle/camptothecin viability 0.347; inactive.

SQOR (sulfide quinone oxidoreductase) #2 gave log2 vehicle/camptothecin viability -0.139; inactive. With knock-down of SQOR (sulfide quinone oxidoreductase) #3, the screen gave log2 vehicle/camptothecin viability -0.134; inactive. For DUSP3 (dual specificity phosphatase 3) #1, the values are log2 vehicle/camptothecin viability 0.0548; inactive. Depletion of DUSP3 (dual specificity phosphatase 3) #2 resulted in: log2 vehicle/camptothecin viability -0.203; inactive. DUSP3 (dual specificity phosphatase 3) #3 scored log2 vehicle/camptothecin viability -0.274; inactive. After knock-down of DUSP3 (dual specificity phosphatase 3) #4, the screen gave log2 vehicle/camptothecin viability 0.491; inactive.

After knock-down of PEX10 (peroxisomal biogenesis factor 10) #1, the record shows log2 vehicle/camptothecin viability 0.00551; inactive. For PEX10 (peroxisomal biogenesis factor 10) #2, the entry reads log2 vehicle/camptothecin viability 0.0242; inactive. Silencing of PEX10 (peroxisomal biogenesis factor 10) #3 gave: log2 vehicle/camptothecin viability -0.127; inactive. For PEX10 (peroxisomal biogenesis factor 10) #4, the entry reads log2 vehicle/camptothecin viability -0.232; inactive. With knock-down of MTO1 (mitochondrial tRNA translation optimization 1) #1, the screen gave log2 vehicle/camptothecin viability -0.534; inactive. Depletion of MTO1 (mitochondrial tRNA translation optimization 1) #2 came out at: log2 vehicle/camptothecin viability -0.0637; inactive.

MTO1 (mitochondrial tRNA translation optimization 1) #3 gave log2 vehicle/camptothecin viability -0.198; inactive. Against MTO1 (mitochondrial tRNA translation optimization 1) #4, the values are log2 vehicle/camptothecin viability -0.281; inactive. With knock-down of PTCH1 (patched 1) #1 the results were log2 vehicle/camptothecin viability 0.258; inactive. Against PTCH1 (patched 1) #2, the values are log2 vehicle/camptothecin viability -0.0357; inactive. Against PTCH1 (patched 1) #3, the values are log2 vehicle/camptothecin viability -0.147; inactive. Silencing of PTCH1 (patched 1) #4 came out at: log2 vehicle/camptothecin viability -0.203; inactive.

NRCAM (neuronal cell adhesion molecule) #1 showed log2 vehicle/camptothecin viability 0.0184; inactive. Depletion of NRCAM (neuronal cell adhesion molecule) #2 gave: log2 vehicle/camptothecin viability 0.0618; inactive. NRCAM (neuronal cell adhesion molecule) #3 gave log2 vehicle/camptothecin viability 0.0464; inactive. Against NRCAM (neuronal cell adhesion molecule) #4 the deposit lists log2 vehicle/camptothecin viability -0.159; inactive. Against TM7SF3 (transmembrane 7 superfamily member 3) #1, the entry reads log2 vehicle/camptothecin viability -0.287; inactive. With knock-down of TM7SF3 (transmembrane 7 superfamily member 3) #2, the record shows log2 vehicle/camptothecin viability -0.681; inactive.

TM7SF3 (transmembrane 7 superfamily member 3) #3 gave log2 vehicle/camptothecin viability 0.224; inactive. TM7SF3 (transmembrane 7 superfamily member 3) #4 scored log2 vehicle/camptothecin viability 0.0521; inactive. Knock-down of IL1R1 (interleukin 1 receptor type 1) #1 resulted in: log2 vehicle/camptothecin viability 0.32; inactive. IL1R1 (interleukin 1 receptor type 1) #2 showed log2 vehicle/camptothecin viability 0.639; inactive. For IL1R1 (interleukin 1 receptor type 1) #3, the entry reads log2 vehicle/camptothecin viability -0.124; inactive. For HDAC7 (histone deacetylase 7) #1 the deposit lists log2 vehicle/camptothecin viability -0.26; inactive.

HDAC7 (histone deacetylase 7) #2 scored log2 vehicle/camptothecin viability -0.114; inactive. Against HDAC7 (histone deacetylase 7) #3, the values are log2 vehicle/camptothecin viability -0.117; inactive. Against ATP2B2 (ATPase plasma membrane Ca2+ transporting 2) #1, the entry reads log2 vehicle/camptothecin viability -0.159; inactive. With knock-down of ATP2B2 (ATPase plasma membrane Ca2+ transporting 2) #2, the record shows log2 vehicle/camptothecin viability 0.123; inactive. After knock-down of ATP2B2 (ATPase plasma membrane Ca2+ transporting 2) #3, the screen gave log2 vehicle/camptothecin viability -0.177; inactive. ATP2B2 (ATPase plasma membrane Ca2+ transporting 2) #4 gave log2 vehicle/camptothecin viability -0.472; inactive.
